Literature values, collected in US11213481B2, “Tumescent drug delivery” (priority 2004, dated 2022).

Settings: tumescent lidocaine; cited from earlier work

For `CCN(CC)CC(=O)Nc1c(C)cccc1C` [Lidocaine], the “time required for systemic absorption” value is listed as ≥ 24 h.
